Data as given in PubChem BioAssay AID1259425 (University of Nebraska Medical Center, 2018)

Aim: 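Compare each knockdown with KSR1 silencing using changes in marker transcripts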 (primary screen)
Cells: HCT116 human colon cancer cells
Reagents: siRNA pool against human genes, 50 nM siRNA
Measured: 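mRNA of six signature genes measured together by branched-DNA assay after 50 nM siRNA pool, blank removed, divided by geometric mean of two housekeeping genes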
Scale: BNIP3L mRNA: higher = more BNIP3L transcript after knockdown; NDRG1 mRNA: higher = more NDRG1 transcript after knockdown
The whole screen tested about 14,000 reagents; below is a random part of them. Not all columns of the deposit are shown. Not stated in the record: the time to read-out.

CCND2 (cyclin D2) scored BNIP3L mRNA, set 1 = 0.142; NDRG1 mRNA, set 1 = 0.468.
JUNB (JunB proto-oncogene, AP-1 transcription factor subunit) showed BNIP3L mRNA, set 1 = 0.201; NDRG1 mRNA, set 1 = 0.457.
Against FNDC1 (fibronectin type III domain containing 1), the entry reads BNIP3L mRNA, set 1 = 0.123; NDRG1 mRNA, set 1 = 0.144.
Depletion of PSAT1 (phosphoserine aminotransferase 1) gave: BNIP3L mRNA, set 1 = 0.153; NDRG1 mRNA, set 1 = 0.257.
Knock-down of SLX4 (SLX4 structure-specific endonuclease subunit) gave: BNIP3L mRNA, set 1 = 0.0706; NDRG1 mRNA, set 1 = 0.863.
Against MT1X (metallothionein 1X), the values are BNIP3L mRNA, set 1 = 0.109; NDRG1 mRNA, set 1 = 0.75.
Against MSC (musculin), the values are BNIP3L mRNA, set 1 = 0.0556; NDRG1 mRNA, set 1 = 0.171.
Knock-down of TFF1 (trefoil factor 1) came out at: BNIP3L mRNA, set 1 = 0.0956; NDRG1 mRNA, set 1 = 0.615.
CDK5RAP2 (CDK5 regulatory subunit associated protein 2) gave BNIP3L mRNA, set 1 = 0.11; NDRG1 mRNA, set 1 = 0.443.
For DMPK (DM1 protein kinase), the entry reads BNIP3L mRNA, set 1 = 0.0304; NDRG1 mRNA, set 1 = 0.0781.
With knock-down of MRPL22 (mitochondrial ribosomal protein L22) the results were BNIP3L mRNA, set 1 = 0.0679; NDRG1 mRNA, set 1 = 0.166.
Against SDC2 (syndecan 2), the entry reads BNIP3L mRNA, set 1 = 0.133; NDRG1 mRNA, set 1 = 0.381.
After knock-down of YIPF2 (Yip1 domain family member 2), the record shows BNIP3L mRNA, set 1 = 0.213; NDRG1 mRNA, set 1 = 0.31.
Depletion of GOLGA8A (golgin A8 family member A) gave: BNIP3L mRNA, set 1 = 0.478; NDRG1 mRNA, set 1 = 0.55.
With knock-down of TGFB2 (transforming growth factor beta 2) the results were BNIP3L mRNA, set 1 = 0.0792; NDRG1 mRNA, set 1 = 0.103.

Laid out differently: entries from further up
{"gene":"PSAT1 (phosphoserine aminotransferase 1)","BNIP3L mRNA, set 1":0.153,"NDRG1 mRNA, set 1":0.257}
{"gene":"SLX4 (SLX4 structure-specific endonuclease subunit)","BNIP3L mRNA, set 1":0.0706,"NDRG1 mRNA, set 1":0.863}

Next results:
Knock-down of PHAX (phosphorylated adaptor for RNA export) gave: BNIP3L mRNA, set 1 = 0.127; NDRG1 mRNA, set 1 = 0.193.
HMGB3 (high mobility group box 3) scored BNIP3L mRNA, set 1 = 0.13; NDRG1 mRNA, set 1 = 0.185.
For ITPR1 (inositol 1,4,5-trisphosphate receptor type 1), the entry reads BNIP3L mRNA, set 1 = 0.119; NDRG1 mRNA, set 1 = 0.323.
With knock-down of WWP1 (WW domain containing E3 ubiquitin protein ligase 1), the screen gave BNIP3L mRNA, set 1 = 0.0613; NDRG1 mRNA, set 1 = 0.0706.
RAB33B (RAB33B, member RAS oncogene family) scored BNIP3L mRNA, set 1 = 0.104; NDRG1 mRNA, set 1 = 0.0516.
PTPRZ1 (protein tyrosine phosphatase receptor type Z1) scored BNIP3L mRNA, set 1 = 0.109; NDRG1 mRNA, set 1 = 0.149.
Against MAPKAP1 (MAPK associated protein 1), the values are BNIP3L mRNA, set 1 = 0.0748; NDRG1 mRNA, set 1 = 0.126.
PICALM (phosphatidylinositol binding clathrin assembly protein) showed BNIP3L mRNA, set 1 = 0.0681; NDRG1 mRNA, set 1 = 0.0839.
After knock-down of EFR3A (EFR3 homolog A) the results were BNIP3L mRNA, set 1 = 0.122; NDRG1 mRNA, set 1 = 0.136.
With knock-down of TTLL1 (TTL family tubulin polyglutamylase complex subunit L1), the screen gave BNIP3L mRNA, set 1 = 0.203; NDRG1 mRNA, set 1 = 0.367.
ZNF213 (zinc finger protein 213) gave BNIP3L mRNA, set 1 = 0.159; NDRG1 mRNA, set 1 = 0.24.
After knock-down of PI3 (peptidase inhibitor 3), the screen gave BNIP3L mRNA, set 1 = 0.074; NDRG1 mRNA, set 1 = 0.261.
With knock-down of NEUROG3 (neurogenin 3), the record shows BNIP3L mRNA, set 1 = 0.142; NDRG1 mRNA, set 1 = 0.229.
